In PMC12723238, “Structural basis for T-cell intracellular antigen-1 amyloid fibril formation revealed by cryo-electron microscopy” (PNAS Nexus, 2025) one finds binding data, which are given here for one molecule.

For the assay, the target named is TIA-1 deletion mutant lacking the fibril core region (residues 336-360) (human) (UniProt P31483). In words: thioflavin T fluorescence + negative-stain TEM; fibril formation of recombinant full-length TIA-1 from phase-separated condensates, with single-stranded DNA TC5, physiological buffer, 30 °C, up to 3 days; both purified.

These are yes or no findings as the source states them, for the method shown.

B1: TIA-1 deletion mutant lacking the fibril core region (residues 336-360) (protein, UniProt P31483)
chain: MEDEMPKTLYVGNLSRDVTEALILQLFSQIGPCKNCKMIMDTAGNDPYCFVEFHEHRHAAAALAAMNGRKIMGKEVKVNWATTPSSQKKDTSSSTVVSTQRSQDHFHVFVGDLSPEITTEDIKAAFAPFGRISDARVVKDMATGKSKGYGFVSFFNKWDAENAIQQMGGQWLGGRQIRTNWATRKPPAPKSTYESNTKQLSYDEVVNQSSPSNCTVYCGGVTSGLTEQLMRQTFSPFGQIMEIRVFPDKGYSFVRFNSHESAAHAIVSVNGTTIEGHVVKCYWGKETLDMINPVQQQNQIGYPQPYGQWGQWYGNAQQIGQYMPNGWQVPAYGMYQPPQGQNGSMLPNQPSGYRVAGYETQ
As to B1, the binding entry is reported as “no binding”.
